# Laboratory results as given in the supplement of paper PMC6414424.
# Where a name gives a salt, the structure may show the parent alone. ± gives the standard deviation of the averaged measurements. The list shows a part of the results.
# Tested on: APPdp1-6 iPSC-derived neurons
# Assay: pThr231Tau/total Tau ratio Z-score vs DMSO vehicle wells; higher = more pThr231Tau relative to total Tau
# Conditions: 5 µM; treatment time 5 days
row,SMILES,pThr231Tau/total Tau ratio Z-score
1,CCCCOc1cc(C(=O)OCCN(CC)CC)ccc1N [Prestw-57],-1.37 ± 0.72
2,C[N+](C)(C)CC(O)CC(=O)[O-] (stereo not given),0.442 ± 0.53
3,COC(=O)[C@H](Cc1ccccc1)NC(=O)[C@@H](N)CC(=O)O [Aspartame],-1.11 ± 0.72
4,C[C@]12CC[C@@H]3c4ccc(O)cc4C[C@@H](CCCCCCCCC[S+]([O-])CCCC(F)(F)C(F)(F)F)[C@H]3[C@@H]1CC[C@@H]2O (stereo not given in full) [Prestw-1424],-1.15 ± 0.32
5,CO/N=C(\C(=O)N[C@@H]1C(=O)N2C(C(=O)O)=C(COC(C)=O)CS[C@H]12)c1csc(N)n1 [Prestw-139],0.657 ± 1
6,CC(CNC1CCCCC1)OC(=O)c1ccccc1 (stereo not given) [Prestw-788],1.46 ± 1.6
7,Nc1ccc(S(=O)(=O)Nc2nccs2)cc1 [Prestw-16],-1.36 ± 1.3
8,Cc1ccc(-c2cc(C(F)(F)F)nn2-c2ccc(S(N)(=O)=O)cc2)cc1 [Prestw-1371],-0.354 ± 0.77
9,C[C@@H]1CCC[C@H](C)N1NC(=O)c1ccc(Cl)c(S(N)(=O)=O)c1 [Prestw-354],0.322 ± 0.68
10,CC[C@H]1OC(=O)[C@H](C)[C@@H](O[C@H]2C[C@@](C)(OC)[C@@H](O)[C@H](C)O2)[C@H](C)[C@@H](O[C@@H]2O[C@H](C)C[C@H](N(C)C)[C@H]2O)[C@](C)(O)C[C@@H](C)CN(C)[C@H](C)[C@@H](O)[C@]1(C)O [Prestw-1234],0.585 ± 1
11,"CC1(C)S[C@@H]2[C@H](NC(=O)C(C(=O)O)c3ccsc3)C(=O)N2[C@H]1C(=O)O (stereo not given in full) [TICARCILLIN DISODIUM, antibacterial]",0.656 ± 1.4
12,CN[C@H]1CC[C@@H](c2ccc(Cl)c(Cl)c2)c2ccccc21 [Prestw-1014],-1.45 ± 1.9
13,CCN(CC)CCNC(=O)c1ccc(N)cc1 [Prestw-337],1.18 ± 0.069
14,NC[C@H](O)c1ccc(O)c(O)c1 [Norepinephrine],0.47 ± 0.78
15,CC(=O)Nc1c(I)c(C(=O)N[C@H]2C(O)O[C@H](CO)[C@@H](O)[C@@H]2O)c(I)c(N(C)C(C)=O)c1I (stereo not given in full) [Prestw-463],-0.68 ± 0.017
16,CCCCCCOc1ccccc1C(N)=O [EXALAMIDE    Therap cat: antifungal],0.671 ± 0.46
17,"O=C(O)C1=C(CSc2nnnn2CS(=O)(=O)O)CS[C@@H]2[C@H](NC(=O)[C@H](O)c3ccccc3)C(=O)N12 [CEFONICID SODIUM, antibacterial]",-1.1 ± 0.4
18,CCOC1O[C@H]([C@@H](COCc2ccccc2)OCc2ccccc2)[C@H](OCc2ccccc2)[C@H]1O (stereo not given in full) [Prestw-1019],-0.523 ± 0.034
19,CNCC(O)c1ccc(O)c(O)c1 (stereo not given) [Prestw-1480],0.339 ± 0.17
20,COc1ccc2cc3[n+](cc2c1OC)CCc1cc2c(cc1-3)OCO2 [Berberine],-4.36 ± 0.68
21,CC(=O)NC[C@H]1CN(c2ccc(N3CCOCC3)c(F)c2)C(=O)O1 [Prestw-1429],0.207 ± 0.52
22,NC(=O)c1cc[n+](CC2=C(C(=O)[O-])N3C(=O)[C@@H](NC(=O)Cc4cccs4)[C@H]3SC2)cc1,1.7 ± 1.6
23,Cc1nccn1CC1CCc2c(c3ccccc3n2C)C1=O (stereo not given) [Prestw-1058],0.595 ± 1.4
24,O=C1C(O)=C(O)C(=O)C(O)=C1O [Prestw-835],-0.484 ± 1.2

row,SMILES,pThr231Tau/total Tau ratio Z-score
1,COc1ccc2c(c1)c(CC(=O)OCC(=O)O)c(C)n2C(=O)c1ccc(Cl)cc1 [Prestw-296],0.692 ± 1.2
2,"Cc1c2oc3c(C)ccc(C(=O)N[C@@H]4C(=O)N[C@H](C(C)C)C(=O)N5CCC[C@H]5C(=O)N(C)CC(=O)N(C)[C@@H](C(C)C)C(=O)O[C@@H]4C)c3nc-2c(C(=O)N[C@@H]2C(=O)N[C@H](C(C)C)C(=O)N3CCC[C@H]3C(=O)N(C)CC(=O)N(C)[C@@H](C(C)C)C(=O)O[C@@H]2C)c(N)c1=O [DACTINOMYCIN, antineoplastic, intercalating agent]",-0.69 ± 0.96
3,CCOCCn1c(N2CCCN(C)CC2)nc2ccccc21 [Prestw-1274],-0.248 ± 0.11
4,CC1=C(C(=O)O)N2C(=O)[C@@H](NC(=O)[C@H](N)c3ccccc3)[C@H]2SC1 [Prestw-358],0.518 ± 0.4
5,CC[C@H](C)C(=O)O[C@H]1C[C@H](O)C=C2C=C[C@H](C)[C@H](CC[C@@H](O)C[C@@H](O)CC(=O)O)[C@H]21 [Prestw-1319],-0.435 ± 0.7
6,Cc1cccc(C)c1NC(=O)CN1CCN(CCCC(c2ccc(F)cc2)c2ccc(F)cc2)CC1 [Prestw-381],-0.903 ± 1
7,NC[C@H]1O[C@H](O[C@H]2[C@H](O)[C@@H](O[C@H]3O[C@H](CO)[C@@H](O)[C@H](N)[C@H]3O)[C@H](N)C[C@@H]2N)[C@H](N)[C@@H](O)[C@@H]1O [BECANAMYCIN SULFATE    Therap cat: antibiotic],1.11 ± 1.5
8,CC(=O)O[C@]1(C(C)=O)CC[C@H]2[C@@H]3C=C(C)C4=CC(=O)CC[C@]4(C)[C@H]3CC[C@@]21C [Prestw-956],-0.734 ± 1.8
9,Nc1nnc(-c2cccc(Cl)c2Cl)c(N)n1 [Prestw-1492],-0.606 ± 0.018
10,CC[C@@]1(O)C(=O)OCc2c1cc1n(c2=O)Cc2cc3c(CN(C)C)c(O)ccc3nc2-1 [Prestw-1196],-1.26 ± 1.2
11,Clc1cc(Cl)c(OCC#CI)cc1Cl [Prestw-1269],0.132 ± 0.25
12,O=C(Nc1ccccc1)OCC(CN1CCCCC1)OC(=O)Nc1ccccc1 (stereo not given) [Prestw-300],1.19 ± 2.1
13,CCCC(=O)Nc1ccc(OCC(O)CNC(C)C)c(C(C)=O)c1 (stereo not given) [Prestw-69],0.61 ± 0.22
14,"C[C@@H]1O[C@@H](OC[C@H]2O[C@@H](Oc3c(-c4ccc(O)c(O)c4)oc4cc(O)cc(O)c4c3=O)[C@H](O)[C@@H](O)[C@@H]2O)[C@H](O)[C@H](O)[C@H]1O [RUTOSIDE  (rutin), vascular protectant]",-1.25 ± 0.17
15,CN1[C@@H]2CC[C@H]1C[C@@H](OC(c1ccccc1)c1ccccc1)C2 [Prestw-1236],-1.15 ± 0.65
16,CC(=O)Nc1ccc(OCC(O)CNC(C)C)cc1 (stereo not given) [Prestw-332],-0.0593 ± 1.4
17,CC(=O)OCC(=O)[C@@]12OC3(CCCC3)O[C@@H]1C[C@H]1[C@@H]3CCC4=CC(=O)C=C[C@]4(C)[C@@]3(F)[C@@H](O)C[C@@]12C [Prestw-1476],-1.16 ± 0.59
18,N=C(N=C(N)N)N1CCOCC1 [Prestw-84],0.166 ± 0.33
19,"N[C@@H](CC(=O)N1CCn2c(nnc2C(F)(F)F)C1)Cc1cc(F)c(F)cc1F [SITAGLIPTIN, DPP4 inhibitor, antidiabetic]",0.602 ± 1.7
20,C[N+]1(C)C2CCC1CC(OC(=O)C(O)c1ccccc1)C2 (stereo not given),0.356 ± 0.043
21,CNCC[C@@H](Oc1ccccc1C)c1ccccc1 [Prestw-1463],-0.658 ± 0.35
22,"CNCC[C@@H](Oc1ccccc1C)c1ccccc1 [ATOMOXETINE HYDROCHLORIDE, norepinephrine reuptake inhibitor]",-1.07 ± 0.21
23,O=C(CCCCC(=O)Nc1c(I)cc(I)c(C(=O)O)c1I)Nc1c(I)cc(I)c(C(=O)O)c1I [IODIPAMIDE    Therap cat: radioopaque agent],-0.918 ± 0.53
24,O=C(CCCCC(=O)Nc1c(I)cc(I)c(C(=O)O)c1I)Nc1c(I)cc(I)c(C(=O)O)c1I [Prestw-939],-0.442 ± 0.66

# An excerpt of these results, tab-delimited.
row	SMILES	pThr231Tau/total Tau ratio Z-score
2	Cc1c2oc3c(C)ccc(C(=O)N[C@@H]4C(=O)N[C@H](C(C)C)C(=O)N5CCC[C@H]5C(=O)N(C)CC(=O)N(C)[C@@H](C(C)C)C(=O)O[C@@H]4C)c3nc-2c(C(=O)N[C@@H]2C(=O)N[C@H](C(C)C)C(=O)N3CCC[C@H]3C(=O)N(C)CC(=O)N(C)[C@@H](C(C)C)C(=O)O[C@@H]2C)c(N)c1=O [DACTINOMYCIN, antineoplastic, intercalating agent]	-0.69 ± 0.96
6	Cc1cccc(C)c1NC(=O)CN1CCN(CCCC(c2ccc(F)cc2)c2ccc(F)cc2)CC1 [Prestw-381]	-0.903 ± 1
10	CC[C@@]1(O)C(=O)OCc2c1cc1n(c2=O)Cc2cc3c(CN(C)C)c(O)ccc3nc2-1 [Prestw-1196]	-1.26 ± 1.2
14	C[C@@H]1O[C@@H](OC[C@H]2O[C@@H](Oc3c(-c4ccc(O)c(O)c4)oc4cc(O)cc(O)c4c3=O)[C@H](O)[C@@H](O)[C@@H]2O)[C@H](O)[C@H](O)[C@H]1O [RUTOSIDE  (rutin), vascular protectant]	-1.25 ± 0.17
20	C[N+]1(C)C2CCC1CC(OC(=O)C(O)c1ccccc1)C2 (stereo not given)	0.356 ± 0.043
21	CNCC[C@@H](Oc1ccccc1C)c1ccccc1 [Prestw-1463]	-0.658 ± 0.35

# The list continues.

row,SMILES,pThr231Tau/total Tau ratio Z-score
1,O=C(O)Cc1cc(I)c(Oc2ccc(O)c(I)c2)c(I)c1 [Prestw-202],-1.11 ± 0.029
2,COCCCOc1ccnc(C[S+]([O-])c2nc3ccccc3[nH]2)c1C (stereo not given) [Prestw-1495],-1.34 ± 0.82
3,CCCc1nc2c(C)cc(-c3nc4ccccc4n3C)cc2n1Cc1ccc(-c2ccccc2C(=O)O)cc1 [Prestw-1350],0.368 ± 0.07
4,"COCCCOc1cc(C[C@@H](C[C@H](N)[C@@H](O)C[C@H](C(=O)NCC(C)(C)C(N)=O)C(C)C)C(C)C)ccc1OC [ALISKIREN HEMIFUMARATE, renin inhibitor]",0.773 ± 1.8
5,C#C[C@]1(OC(C)=O)CC[C@H]2[C@@H]3CCC4=CC(=O)CC[C@@H]4[C@H]3CC[C@@]21C,0.0772 ± 1.2
6,CCCCOC(=O)c1ccc(O)cc1 [Prestw-894],1.1 ± 2.9
7,N=C(N)N1CCc2ccccc2C1 [Prestw-372],0.163 ± 0.94
8,CC1=CC(=O)c2ccccc2C1=O [Menadione],1.83 ± 0.83
9,CCCCC1C(=O)N(c2ccccc2)N(c2ccccc2)C1=O [Prestw-1310],-0.834 ± 0.1
10,CN(C)CCN(Cc1ccc(Cl)cc1)c1ccccn1 [Prestw-807],0.117 ± 0.45
11,NS(=O)(=O)Cc1noc2ccccc12 [Prestw-1162],1.19 ± 0.99
12,COc1ccc2c(c1)C(=O)N(CCc1ccc(S(=O)(=O)NC(=O)NC3CCCCC3)cc1)C(=O)C2(C)C [Prestw-991],-0.647 ± 0.29
13,Cc1cn([C@H]2C[C@H](N=[N+]=[N-])[C@@H](CO)O2)c(=O)[nH]c1=O [Prestw-333],-0.281 ± 0.22
14,COC(=O)[C@@H](N)CS [MECYSTEINE HYDROCHLORIDE    Therap cat: mucolytic],0.691 ± 0.87
15,COc1ccc([C@@H]2Sc3ccccc3N(CCN(C)C)C(=O)[C@@H]2OC(C)=O)cc1 [Prestw-134],0.808 ± 0.61
16,"CN(C)[C@@H]1C(=O)C(C(=O)NCN2CCCC2)=C(O)[C@@]2(O)C(=O)C3=C(O)c4c(O)cccc4[C@@](C)(O)[C@H]3C[C@@H]12 [ROLITETRACYCLINE, antibacterial]",0.64 ± 0.76
17,CC(C[N+](C)(C)C)OC(N)=O (stereo not given) [Prestw-1073],0.628 ± 0.36
18,COc1cccc(N(C)C(=S)Oc2ccc3c(c2)CCCC3)n1 [Prestw-1140],0.468 ± 0.053
19,NCCc1cc[nH]n1 [Prestw-43],0.981 ± 0.4
20,CCCNC(C)C(=O)Nc1c(C)csc1C(=O)OC (stereo not given) [Prestw-1032],0.569 ± 1.4
21,Cc1c(NC(C)C)c(=O)n(-c2ccccc2)n1C [Prestw-722],0.356 ± 1
22,CC(C=CC=C(C)C=CC1=C(C)CCCC1(C)C)=CC=CC=C(C)C=CC=C(C)C=CC1=C(C)CCCC1(C)C [B-Carotene],0.0884 ± 0.85
